Where a name gives a salt, the structure may show the parent alone. ± gives the standard deviation of the averaged measurements. This is one part of the list. The data scatter; read single values as rough.
Key:
[1] = test system: hAMSC donor 1; experiment: Hoechst total cell count ratio vs vehicle control; higher = more cells (less toxicity)
[2] = test system: hAMSC donor 2; experiment: as above
[3] = test system: hAMSC donor 1; experiment: transgenic luciferase activity (RLU/mg protein) fold change vs vehicle control (ratio); higher = more transgene expression
[4] = test system: hAMSC donor 2; experiment: as above
[5] = test system: hAMSC donor 1; experiment: transfection efficiency (EGFP+ cells / Hoechst count) fold change vs vehicle control (ratio); hAMSC are human adipose-derived mesenchymal stem cells given an EGFP-luciferase plasmid by lipofection; higher = enhanced transfection
[6] = test system: hAMSC donor 2; experiment: as above
[7] = priming compound concentration 0.2 µM
[8] = priming compound concentration 1.7 µM
[9] = priming compound concentration 13 µM

SMILES | Hoechst total cell count ratio [1, 7] | Hoechst total cell count ratio [1, 8] | Hoechst total cell count ratio [1, 9] | Hoechst total cell count ratio [2, 7] | Hoechst total cell count ratio [2, 8] | Hoechst total cell count ratio [2, 9] | transgenic luciferase activity [3, 7] | transgenic luciferase activity [3, 8] | transgenic luciferase activity [3, 9] | transgenic luciferase activity [4, 9] | transfection efficiency [5, 7] | transfection efficiency [5, 8] | transfection efficiency [5, 9] | transfection efficiency [6, 7] | transfection efficiency [6, 8] | transfection efficiency [6, 9] | transgenic luciferase activity [4, 7] | transgenic luciferase activity [4, 8]
Cc1onc(-c2ccccc2)c1-c1ccc(S(N)(=O)=O)cc1 [Valdecoxib] | 1.4 ± 0.33 | 1.04 ± 0.11 | 0.976 ± 0.16 | 1.09 ± 0.38 | 0.885 ± 0.18 | 1.03 ± 0.06 | 0.643 ± 0.34 | 0.911 ± 0.26 | 1 ± 0.52 | 1.2 ± 0.3 | 1.02 ± 0.21 | 1.43 ± 0.2 | 0.9832 ± 0.005 | 1.23 ± 0.36 | 1.11 ± 0.075 | 1.61 ± 0.39 | – | –
Clc1ccc(COC(Cn2ccnc2)c2ccc(Cl)cc2Cl)c(Cl)c1 (centres undefined) [Miconazole nitrate] | 1.18 ± 0.22 | 1.3 ± 0.13 | 1.22 ± 0.031 | 1.05 ± 0.36 | 1.02 ± 0.057 | 1.52 ± 0.089 | 0.553 ± 0.15 | 0.843 ± 0.052 | 0.476 ± 0.51 | 0.863 ± 0.36 | 1.19 ± 0.18 | 0.878 ± 0.17 | 0.901 ± 0.23 | 1.34 ± 0.41 | 1.11 ± 0.18 | 1.27 ± 0.084 | – | –
CCOC(=O)[C@@]1(CCCCCCOc2ccc(Cl)cc2)CO1 [Etomoxir] | 1.28 ± 0.35 | 1.21 ± 0.029 | 1.04 ± 0.12 | 0.813 ± 0.12 | 0.916 ± 0.12 | 1.35 ± 0.08 | 0.743 ± 0.31 | 0.615 ± 0.2 | 0.698 ± 0.21 | 0.946 ± 0.35 | 1.16 ± 0.25 | 0.906 ± 0.12 | 1.16 ± 0.17 | 1.61 ± 0.41 | 0.988 ± 0.16 | 1.35 ± 0.019 | – | –
S=c1[nH]cnc2nc[nH]c12 [Mercaptopurine] | 0.842 ± 0.1 | 1.03 ± 0.11 | 1.11 ± 0.044 | 1.05 ± 0.22 | 0.925 ± 0.029 | 1.26 ± 0.31 | 0.615 ± 0.19 | 0.583 ± 0.3 | 0.917 ± 0.4 | 0.967 ± 0.22 | 1.66 ± 0.053 | 1.06 ± 0.13 | 0.726 ± 0.13 | 1.18 ± 0.37 | 1.09 ± 0.021 | 1.53 ± 0.53 | – | –
COc1cc(C)nc(-n2nc(C)cc2OC)n1 [Mepirizole] | 1.35 ± 0.078 | 1.23 ± 0.15 | 1.09 ± 0.052 | 1.04 ± 0.32 | 0.804 ± 0.14 | 1.2 ± 0.17 | 0.402 ± 0.28 | 0.843 ± 0.46 | 0.98 ± 0.34 | 1.21 ± 0.1 | 1.14 ± 0.21 | 1.27 ± 0.23 | 1.05 ± 0.24 | 0.939 ± 0.081 | 1.34 ± 0.035 | 1.28 ± 0.23 | – | –
Oc1ncnc2[nH]ncc12 [Allopurinol] | 1.14 ± 0.18 | 1.17 ± 0.16 | 1.22 ± 0.12 | 0.748 ± 0.1 | 0.961 ± 0.17 | 1.67 ± 0.55 | 0.785 ± 0.32 | 0.623 ± 0.23 | 1.3 ± 0.67 | 1.08 ± 0.21 | 1.07 ± 0.084 | 1.17 ± 0.38 | 0.944 ± 0.27 | 1.39 ± 0.17 | 1.03 ± 0.02 | 1.38 ± 0.089 | – | –
Cc1occc(=O)c1O [Maltol] | 1.106 ± 0.0029 | 1.03 ± 0.061 | 1.12 ± 0.085 | 0.788 ± 0.077 | 0.823 ± 0.09 | 1.07 ± 0.19 | 0.626 ± 0.045 | 0.978 ± 0.44 | 1.64 ± 2 | 1.14 ± 0.35 | 1.03 ± 0.099 | 1.22 ± 0.066 | 0.833 ± 0.12 | 1.25 ± 0.29 | 1.28 ± 0.2 | 1.29 ± 0.18 | – | –
NS(=O)(=O)c1cc(C2(O)NC(=O)c3ccccc32)ccc1Cl (centres undefined) [Chlorthalidone] | 1.41 ± 0.088 | 1.33 ± 0.14 | 1.15 ± 0.11 | 0.961 ± 0.23 | 0.841 ± 0.23 | 1.34 ± 0.14 | 0.476 ± 0.15 | 0.832 ± 0.58 | 0.418 ± 0.32 | 1.21 ± 0.42 | 1.16 ± 0.29 | 1.07 ± 0.33 | 1.12 ± 0.26 | 1.27 ± 0.23 | 1.43 ± 0.39 | 1.03 ± 0.31 | – | –
CC(C)Oc1ccc2c(=O)c(-c3ccccc3)coc2c1 [Ipriflavone] | 1.39 ± 0.21 | 1.08 ± 0.055 | 1.17 ± 0.088 | 1.05 ± 0.4 | 0.75 ± 0.044 | 1.41 ± 0.21 | 0.583 ± 0.21 | 2.79 ± 1.7 | 2.08 ± 1.3 | 2.95 ± 0.41 | 0.804 ± 0.19 | 1.51 ± 0.32 | 1.46 ± 0.081 | 1.08 ± 0.23 | 1.55 ± 0.19 | 2.12 ± 0.12 | – | –
CC(COc1ccccc1Cc1ccccc1)N1CCCCC1 (centres undefined) [Benproperine phosphate] | 1.26 ± 0.056 | 1.36 ± 0.06 | 1.24 ± 0.082 | 1.16 ± 0.088 | 1.04 ± 0.16 | 1.57 ± 0.031 | 0.722 ± 0.17 | 0.883 ± 0.34 | 1.21 ± 0.5 | 0.882 ± 0.49 | 1.09 ± 0.53 | 1.09 ± 0.21 | 0.996 ± 0.35 | 1.06 ± 0.4 | 1.18 ± 0.27 | 0.888 ± 0.13 | 0.63 ± 0.2 | 1.24 ± 0.1
CCC[C@@H]1C[C@@H](C(=O)N[C@@H]([C@H]2O[C@H](SC)[C@H](O)[C@@H](O)[C@H]2O)[C@@H](C)O)N(C)C1 [Lincomycin hydrochloride] | 1.48 ± 0.2 | 1.25 ± 0.15 | 1.21 ± 0.1 | 0.903 ± 0.19 | 0.888 ± 0.058 | 1.03 ± 0.037 | 0.627 ± 0.19 | 1.49 ± 0.33 | 0.769 ± 0.41 | 1.25 ± 0.31 | 0.992 ± 0.096 | 1.2 ± 0.24 | 0.836 ± 0.043 | 1.06 ± 0.24 | 1.13 ± 0.11 | 1.35 ± 0.19 | – | –
Cc1cc(NS(=O)(=O)c2ccc(N)cc2)no1 [Sulfamethoxazole] | 1.39 ± 0.097 | 1.06 ± 0.15 | 1.21 ± 0.11 | 0.865 ± 0.16 | 0.888 ± 0.088 | 1.39 ± 0.086 | 0.852 ± 0.12 | 1.52 ± 0.65 | 0.389 ± 0.36 | 1.15 ± 0.46 | 1.17 ± 0.1 | 1.26 ± 0.17 | 0.967 ± 0.33 | 0.914 ± 0.17 | 1.38 ± 0.095 | 1.15 ± 0.017 | – | –
O=C(O)c1cc(/N=N/c2ccc(S(=O)(=O)Nc3ccccn3)cc2)ccc1O [Sulfasalazine] | 1.34 ± 0.15 | 1.26 ± 0.056 | 1.13 ± 0.12 | 1.16 ± 0.16 | 0.857 ± 0.08 | 1.17 ± 0.25 | 0.634 ± 0.19 | 0.574 ± 0.43 | 1.04 ± 0.18 | 1.03 ± 0.033 | 1.05 ± 0.14 | 1.13 ± 0.14 | 0.965 ± 0.044 | 1.02 ± 0.21 | 1.1 ± 0.2 | 1.63 ± 0.16 | – | –
CCOC(=O)N1CCC(=C2c3ccc(Cl)cc3CCc3cccnc32)CC1 [Loratadine] | – | – | – | – | – | – | 0.646 ± 0.054 | 0.97 ± 0.23 | 0.143 ± 0.038 | 0.747 ± 0.038 | 1.16 ± 0.2 | 1.07 ± 0.31 | 1.1 ± 0.39 | 0.849 ± 0.17 | 1.17 ± 0.1 | 1.07 ± 0.22 | 0.602 ± 0.15 | 0.587 ± 0.11
O=c1n(CCCN2CCN(c3cccc(Cl)c3)CC2)nc2ccccn12 [Trazodone hydrochloride] | – | – | – | – | – | – | 0.617 ± 0.17 | 0.83 ± 0.41 | 1.02 ± 0.62 | 2.04 ± 0.17 | 1.2 ± 0.57 | 1.52 ± 0.75 | 1.09 ± 0.19 | 1.15 ± 0.28 | 1.11 ± 0.1 | 1.34 ± 0.037 | 0.635 ± 0.07 | 1.01 ± 0.23

From the supplement of paper PMC7238544
